This is an account of results in the supplement of paper PMC4862054.

What all share (test): normalised response (% of control), CellTox Green; higher = less cell death (100 = DMSO, 0 = benzethonium chloride kill control)
Holding throughout (conditions): incubation time: 72 h

The test system of experiment [1] is BT-474. The method, then: (§1)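 DSRT, 72 h incubation, CellTox Green / CellTiter-Glo readout. Signal is normalised to DMSO and benzethonium chloride controls. Value is the normalised response at the lowest tested concentration.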
Experiment [2] concerns BT-549. Here is the method: as §1
The test system of experiment [3] is CAL-120. The method, then:
as §1

The subject of experiment [4] is CAL-148. The method, then: as §1
The subject of experiment [5] is CAL-51. Here is the method: as §1
Experiment [6] concerns CAL-85-1. The method, then: as §1
Experiment [7] relates to DU-4475. The method, then: as §1
The test system of experiment [8] is HCC1143. Here is the method: as §1
The test system of experiment [9] is HCC1599. The method, then:
as §1

The subject of a further experiment is Hs578T. The method, then: as §1
Experiment [10] deals with MCF-10A. The method, then:
as §1

Experiment [11] has as its system MDA-MB-231. Here is the method:
as §1

In experiment [12] the test system is MDA-MB-453. Here is the method:
as §1

Experiment [13] deals with MDA-MB-468. Here is the method: as §1
Experiment [14] concerns MFM-223. Here is the method:
as §1

Experiment [15] concerns BT-474. The method, then:
(§2)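 DSRT, 72 h incubation, CellTox Green / CellTiter-Glo readout. Signal is normalised to DMSO and benzethonium chloride controls. Value is the normalised response at dose 2.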
The source holds these as a separate data set.

For experiment [16], the system named is BT-549. The method, then: as §2
The source holds these as a separate data set.

Experiment [17] relates to CAL-120. The method, then: as §2
This is another data set of the same source.

In experiment [18] the test system is CAL-148. The method, then:
as §2
The source holds these as a separate data set.

Experiment [19] relates to CAL-51. Here is the method:
as §2
The source holds these as a separate data set.

The subject of experiment [20] is CAL-85-1. The method, then:
as §2
This is another data set of the same source.

Experiment [21] deals with DU-4475. Here is the method:
as §2
The source holds these as a separate data set.

Experiment [22] relates to HCC1143. Here is the method:
as §2
The source holds these as a separate data set.

The test system of experiment [23] is HCC1599. Here is the method:
as §2
The source holds these as a separate data set.

For the next experiment, the system named is HCC1937. The method, then:
as §2

A further experiment relates to HDQ-P1. Here is the method:
as §2

Experiment [24] has as its system MCF-10A. The method, then: as §2
This is another data set of the same source.

Experiment [25] concerns MDA-MB-231. The method, then: as §2
This is another data set of the same source.

The test system of experiment [26] is MDA-MB-436. Here is the method:
as §2

Experiment [27] has as its system MDA-MB-453. The method, then: as §2
The source holds these as a separate data set.

Experiment [28] concerns MDA-MB-468. Here is the method:
as §2
The source holds these as a separate data set.

Experiment [29] deals with MFM-223. The method, then: as §2
This is another data set of the same source.

For experiment [30], the system named is MDA-MB-436. The method, then:
as §1
This is another data set of the same source.

Structures are written as SMILES. Most entries show no effect beyond the scatter of the controls.

As for `O=C1CN2Cc3c(ccc(Cl)c3Cl)N=C2N1` [Anagrelide] (1 nM), the normalised response in the experiment on BT-474 [1] amounted to 100%; with BT-549 [2], 88.3%; in the experiment on CAL-120 [3], 97.8%; with CAL-148 [4], 103%; in the experiment on CAL-51 [5] it was 118%; with CAL-85-1 [6], 106%. Moreover, the normalised response in the experiment on DU-4475 [7] came out at 100%; in the experiment with HCC1143 [8], 108%; in the experiment on HCC1599 [9] it was 100%; with Hs578T, 75.2%; in the experiment with MCF-10A [10], 97.3%; in the experiment with MDA-MB-231 [11], 111%. The normalised response in the experiment on MDA-MB-453 [12] was 100%; in the experiment with MDA-MB-468 [13], 87.9%; in the experiment on MFM-223 [14] it was 73.6%.

As to `O=S(=O)(c1cccc2cnccc12)N1CCCNCC1` [Fasudil] (50 nM), the normalised response came to 98.9% in the experiment on BT-474 [15]; 89.6% in the experiment with BT-549 [16]; 104% in the experiment with CAL-120 [17]; 101% in the experiment on CAL-148 [18]; 115% in the experiment with CAL-51 [19]; 105% in the experiment on CAL-85-1 [20]. Moreover, the normalised response with DU-4475 [21] is 102%; in the experiment on HCC1143 [22] it was 101%; with HCC1599 [23], 101%; with HCC1937, 103%; in the experiment with HDQ-P1, 110%; with MCF-10A [24], 105%. Besides, the normalised response came to 75.5% in the experiment on MDA-MB-231 [25]; 101% in the experiment with MDA-MB-436 [26]; 95.5% with MDA-MB-453 [27]; 84.2% in the experiment on MDA-MB-468 [28]; 82.3% in the experiment with MFM-223 [29].

For `CC(C)Cn1cnc2c(N)nc3ccccc3c21` [Imiquimod] (2.5 nM), the normalised response was determined as 103% in the experiment with BT-474 [15]; 98.9% in the experiment with BT-549 [16]; 98.4% in the experiment with CAL-120 [17]; 94.8% in the experiment on CAL-148 [18]; 105% in the experiment with CAL-51 [19]; 105% in the experiment on CAL-85-1 [20]. The normalised response in the experiment on DU-4475 [21] came out at 100%; in the experiment with HCC1143 [22], 81.7%; in the experiment with HCC1599 [23], 103%; in the experiment on HCC1937, 117%; in the experiment with HDQ-P1, 123%; in the experiment on MCF-10A [24] it was 110%. Further, the normalised response amounted to 109% in the experiment with MDA-MB-231 [25]; 83.9% in the experiment with MDA-MB-436 [26]; 97.8% in the experiment on MDA-MB-453 [27]; 108% in the experiment on MDA-MB-468 [28]; 102% in the experiment on MFM-223 [29].

Take `CCS(=O)(=O)c1cccc(-c2cc(C(=O)NC3CCN(C)CC3)c(C)c3[nH]c4ncc(C)cc4c23)c1` [TAK-901] (1 nM): the normalised response came out at 92.8% in the experiment with BT-474 [15]; 105% in the experiment on BT-549 [16]; 103% in the experiment on CAL-120 [17]; 106% in the experiment with CAL-148 [18]; 90.1% in the experiment with CAL-51 [19]; 93.8% in the experiment on CAL-85-1 [20]. For the same compound, the normalised response with DU-4475 [21] amounted to 101%; in the experiment on HCC1599 [23], 102%; in the experiment on HCC1937, 83.1%; with HDQ-P1, 88.6%; with MCF-10A [24], 100%; with MDA-MB-436 [26], 109%. For the same compound, the normalised response with MDA-MB-453 [27] was 99.4%; in the experiment with MFM-223 [29], 100%.

Turning to `COc1cc2c(NC3CCN(C(C)C)CC3)nc(C3CCCCC3)nc2cc1OCCCN1CCCC1` [UNC0638] (1 nM), the normalised response was 97.2% in the experiment on BT-474 [1]; 102% in the experiment on BT-549 [2]; 101% in the experiment with CAL-120 [3]; 97.8% in the experiment with CAL-148 [4]; 112% with CAL-51 [5]; 107% in the experiment on CAL-85-1 [6]. In addition, the normalised response in the experiment on DU-4475 [7] turned out to be 98.9%; with HCC1143 [8] it was 114%; in the experiment with HCC1599 [9], 106%; with Hs578T, 105%; with MDA-MB-436 [30] it was 101%; in the experiment on MDA-MB-453 [12] it was 96.7%. In addition, the normalised response turned out to be 84.4% in the experiment with MDA-MB-468 [13] and 87.8% in the experiment on MFM-223 [14].
